The values that follow come from the supplement of paper PMC12819154, “High-throughput peptide-centric local stability assay extends protein–ligand identification to membrane proteins, tissues and bacteria” (Nature Structural & Molecular Biology, 2025).

The chains behind the UniProt entries cited, without tags or fusion partners. Where a name states a change or a piece, a line headed by the entry shows the natural chain unless it says otherwise.
UniProt P50544: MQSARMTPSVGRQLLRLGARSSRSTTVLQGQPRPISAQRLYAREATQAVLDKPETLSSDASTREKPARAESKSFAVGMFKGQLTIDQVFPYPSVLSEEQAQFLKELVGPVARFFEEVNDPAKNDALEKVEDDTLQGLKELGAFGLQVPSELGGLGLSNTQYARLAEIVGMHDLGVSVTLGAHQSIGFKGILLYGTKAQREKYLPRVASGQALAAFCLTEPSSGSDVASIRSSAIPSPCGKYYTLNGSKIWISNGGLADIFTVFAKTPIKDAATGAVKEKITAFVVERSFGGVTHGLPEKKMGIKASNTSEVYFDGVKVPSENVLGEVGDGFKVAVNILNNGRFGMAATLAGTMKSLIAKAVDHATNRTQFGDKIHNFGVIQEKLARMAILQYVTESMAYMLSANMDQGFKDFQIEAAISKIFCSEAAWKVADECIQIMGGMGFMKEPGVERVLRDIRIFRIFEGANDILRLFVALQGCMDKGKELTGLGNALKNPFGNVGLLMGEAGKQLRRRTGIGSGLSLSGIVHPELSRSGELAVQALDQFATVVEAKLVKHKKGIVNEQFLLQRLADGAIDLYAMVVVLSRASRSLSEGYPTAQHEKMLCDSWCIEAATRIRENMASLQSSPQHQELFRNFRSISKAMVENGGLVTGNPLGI
UniProt P51880: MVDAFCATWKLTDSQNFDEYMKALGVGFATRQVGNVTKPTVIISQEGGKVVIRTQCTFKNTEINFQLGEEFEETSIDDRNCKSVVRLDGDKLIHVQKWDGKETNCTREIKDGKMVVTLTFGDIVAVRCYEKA
UniProt P35441: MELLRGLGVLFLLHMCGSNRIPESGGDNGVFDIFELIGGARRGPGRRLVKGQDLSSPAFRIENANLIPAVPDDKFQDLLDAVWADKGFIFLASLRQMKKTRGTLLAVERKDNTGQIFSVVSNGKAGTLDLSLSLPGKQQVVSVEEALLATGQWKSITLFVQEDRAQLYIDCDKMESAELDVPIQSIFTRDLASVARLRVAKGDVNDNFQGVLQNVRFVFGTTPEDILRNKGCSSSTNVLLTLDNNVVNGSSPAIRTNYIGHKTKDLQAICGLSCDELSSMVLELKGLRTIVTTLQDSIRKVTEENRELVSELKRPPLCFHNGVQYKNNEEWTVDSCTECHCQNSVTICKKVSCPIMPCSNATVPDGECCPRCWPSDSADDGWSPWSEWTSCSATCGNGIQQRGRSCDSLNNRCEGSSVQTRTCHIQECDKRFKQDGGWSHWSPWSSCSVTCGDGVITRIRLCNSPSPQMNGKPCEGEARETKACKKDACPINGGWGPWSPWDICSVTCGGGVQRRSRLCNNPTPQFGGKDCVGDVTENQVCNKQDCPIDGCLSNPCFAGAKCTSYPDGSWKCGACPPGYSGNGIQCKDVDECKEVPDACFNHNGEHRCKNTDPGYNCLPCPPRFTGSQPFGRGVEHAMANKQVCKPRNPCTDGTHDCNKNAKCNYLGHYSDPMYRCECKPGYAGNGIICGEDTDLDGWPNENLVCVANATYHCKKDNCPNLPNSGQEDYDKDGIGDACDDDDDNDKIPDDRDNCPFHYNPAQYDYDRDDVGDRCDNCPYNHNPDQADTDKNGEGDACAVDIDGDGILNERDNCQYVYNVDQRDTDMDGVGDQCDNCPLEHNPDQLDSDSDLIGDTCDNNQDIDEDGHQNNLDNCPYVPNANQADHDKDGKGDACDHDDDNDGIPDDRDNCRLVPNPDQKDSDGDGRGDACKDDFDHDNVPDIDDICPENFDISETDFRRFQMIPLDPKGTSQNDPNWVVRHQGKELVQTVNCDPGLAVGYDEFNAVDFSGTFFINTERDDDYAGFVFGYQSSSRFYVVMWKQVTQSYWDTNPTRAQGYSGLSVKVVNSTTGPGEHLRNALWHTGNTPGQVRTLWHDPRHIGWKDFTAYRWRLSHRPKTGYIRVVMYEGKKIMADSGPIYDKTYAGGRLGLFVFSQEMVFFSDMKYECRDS
UniProt P47941: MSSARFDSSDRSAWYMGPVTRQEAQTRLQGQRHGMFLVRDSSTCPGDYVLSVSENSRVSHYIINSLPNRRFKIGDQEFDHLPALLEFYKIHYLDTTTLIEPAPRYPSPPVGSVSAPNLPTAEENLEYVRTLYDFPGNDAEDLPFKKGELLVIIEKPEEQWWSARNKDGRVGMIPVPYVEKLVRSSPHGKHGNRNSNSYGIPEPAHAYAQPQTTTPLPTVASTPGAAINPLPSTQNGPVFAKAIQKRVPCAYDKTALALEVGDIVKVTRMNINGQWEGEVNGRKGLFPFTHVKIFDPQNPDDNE
UniProt P34022, whole entry: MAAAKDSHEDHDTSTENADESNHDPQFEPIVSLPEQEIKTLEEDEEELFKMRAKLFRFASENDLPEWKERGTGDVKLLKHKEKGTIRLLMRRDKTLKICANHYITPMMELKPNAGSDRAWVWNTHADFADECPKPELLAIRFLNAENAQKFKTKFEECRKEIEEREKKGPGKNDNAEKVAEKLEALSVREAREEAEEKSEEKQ
UniProt P56391: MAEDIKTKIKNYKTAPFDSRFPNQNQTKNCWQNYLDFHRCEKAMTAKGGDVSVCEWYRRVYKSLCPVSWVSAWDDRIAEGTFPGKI
UniProt P56382: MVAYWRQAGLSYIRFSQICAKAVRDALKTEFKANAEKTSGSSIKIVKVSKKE
UniProt P56542: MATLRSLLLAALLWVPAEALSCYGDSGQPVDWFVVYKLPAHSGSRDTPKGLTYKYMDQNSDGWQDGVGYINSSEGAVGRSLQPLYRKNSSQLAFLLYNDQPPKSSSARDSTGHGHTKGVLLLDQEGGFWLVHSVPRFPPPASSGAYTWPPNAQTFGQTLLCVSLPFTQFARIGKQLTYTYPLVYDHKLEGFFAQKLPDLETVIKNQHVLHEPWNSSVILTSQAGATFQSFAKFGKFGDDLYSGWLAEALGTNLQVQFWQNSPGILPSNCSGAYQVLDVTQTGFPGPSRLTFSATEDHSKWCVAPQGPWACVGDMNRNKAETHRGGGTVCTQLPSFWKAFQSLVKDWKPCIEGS
UniProt P47739: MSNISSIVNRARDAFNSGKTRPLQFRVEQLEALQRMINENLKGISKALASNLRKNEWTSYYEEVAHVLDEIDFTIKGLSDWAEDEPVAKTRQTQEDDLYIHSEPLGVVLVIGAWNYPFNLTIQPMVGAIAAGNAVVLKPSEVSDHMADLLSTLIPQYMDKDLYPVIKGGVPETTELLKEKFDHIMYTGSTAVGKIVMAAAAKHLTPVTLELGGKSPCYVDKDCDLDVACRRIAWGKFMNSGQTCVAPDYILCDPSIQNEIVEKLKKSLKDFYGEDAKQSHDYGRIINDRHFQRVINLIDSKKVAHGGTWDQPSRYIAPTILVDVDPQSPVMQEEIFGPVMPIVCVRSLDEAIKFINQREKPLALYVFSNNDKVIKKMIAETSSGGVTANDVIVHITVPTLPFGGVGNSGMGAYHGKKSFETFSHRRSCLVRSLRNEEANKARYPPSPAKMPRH
UniProt P35710: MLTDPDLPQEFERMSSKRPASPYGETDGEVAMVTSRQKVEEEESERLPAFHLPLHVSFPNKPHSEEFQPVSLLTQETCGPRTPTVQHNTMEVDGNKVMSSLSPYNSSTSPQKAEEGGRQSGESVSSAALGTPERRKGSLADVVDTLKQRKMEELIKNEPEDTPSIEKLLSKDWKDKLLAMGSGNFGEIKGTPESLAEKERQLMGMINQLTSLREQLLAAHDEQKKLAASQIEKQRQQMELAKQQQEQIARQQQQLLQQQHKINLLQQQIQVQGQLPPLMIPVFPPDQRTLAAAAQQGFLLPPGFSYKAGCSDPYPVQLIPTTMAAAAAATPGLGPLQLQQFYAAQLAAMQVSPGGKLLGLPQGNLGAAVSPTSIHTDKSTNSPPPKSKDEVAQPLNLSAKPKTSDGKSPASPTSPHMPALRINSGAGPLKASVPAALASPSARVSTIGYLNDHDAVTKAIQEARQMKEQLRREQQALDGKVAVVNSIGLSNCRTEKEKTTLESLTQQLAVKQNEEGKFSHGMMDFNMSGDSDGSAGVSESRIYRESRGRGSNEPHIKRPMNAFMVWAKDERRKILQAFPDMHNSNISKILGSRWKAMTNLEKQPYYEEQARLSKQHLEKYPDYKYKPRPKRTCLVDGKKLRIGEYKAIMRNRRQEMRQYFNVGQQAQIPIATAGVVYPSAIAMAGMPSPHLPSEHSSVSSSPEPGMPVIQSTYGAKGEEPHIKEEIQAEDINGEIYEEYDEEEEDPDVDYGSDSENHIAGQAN
UniProt P39061: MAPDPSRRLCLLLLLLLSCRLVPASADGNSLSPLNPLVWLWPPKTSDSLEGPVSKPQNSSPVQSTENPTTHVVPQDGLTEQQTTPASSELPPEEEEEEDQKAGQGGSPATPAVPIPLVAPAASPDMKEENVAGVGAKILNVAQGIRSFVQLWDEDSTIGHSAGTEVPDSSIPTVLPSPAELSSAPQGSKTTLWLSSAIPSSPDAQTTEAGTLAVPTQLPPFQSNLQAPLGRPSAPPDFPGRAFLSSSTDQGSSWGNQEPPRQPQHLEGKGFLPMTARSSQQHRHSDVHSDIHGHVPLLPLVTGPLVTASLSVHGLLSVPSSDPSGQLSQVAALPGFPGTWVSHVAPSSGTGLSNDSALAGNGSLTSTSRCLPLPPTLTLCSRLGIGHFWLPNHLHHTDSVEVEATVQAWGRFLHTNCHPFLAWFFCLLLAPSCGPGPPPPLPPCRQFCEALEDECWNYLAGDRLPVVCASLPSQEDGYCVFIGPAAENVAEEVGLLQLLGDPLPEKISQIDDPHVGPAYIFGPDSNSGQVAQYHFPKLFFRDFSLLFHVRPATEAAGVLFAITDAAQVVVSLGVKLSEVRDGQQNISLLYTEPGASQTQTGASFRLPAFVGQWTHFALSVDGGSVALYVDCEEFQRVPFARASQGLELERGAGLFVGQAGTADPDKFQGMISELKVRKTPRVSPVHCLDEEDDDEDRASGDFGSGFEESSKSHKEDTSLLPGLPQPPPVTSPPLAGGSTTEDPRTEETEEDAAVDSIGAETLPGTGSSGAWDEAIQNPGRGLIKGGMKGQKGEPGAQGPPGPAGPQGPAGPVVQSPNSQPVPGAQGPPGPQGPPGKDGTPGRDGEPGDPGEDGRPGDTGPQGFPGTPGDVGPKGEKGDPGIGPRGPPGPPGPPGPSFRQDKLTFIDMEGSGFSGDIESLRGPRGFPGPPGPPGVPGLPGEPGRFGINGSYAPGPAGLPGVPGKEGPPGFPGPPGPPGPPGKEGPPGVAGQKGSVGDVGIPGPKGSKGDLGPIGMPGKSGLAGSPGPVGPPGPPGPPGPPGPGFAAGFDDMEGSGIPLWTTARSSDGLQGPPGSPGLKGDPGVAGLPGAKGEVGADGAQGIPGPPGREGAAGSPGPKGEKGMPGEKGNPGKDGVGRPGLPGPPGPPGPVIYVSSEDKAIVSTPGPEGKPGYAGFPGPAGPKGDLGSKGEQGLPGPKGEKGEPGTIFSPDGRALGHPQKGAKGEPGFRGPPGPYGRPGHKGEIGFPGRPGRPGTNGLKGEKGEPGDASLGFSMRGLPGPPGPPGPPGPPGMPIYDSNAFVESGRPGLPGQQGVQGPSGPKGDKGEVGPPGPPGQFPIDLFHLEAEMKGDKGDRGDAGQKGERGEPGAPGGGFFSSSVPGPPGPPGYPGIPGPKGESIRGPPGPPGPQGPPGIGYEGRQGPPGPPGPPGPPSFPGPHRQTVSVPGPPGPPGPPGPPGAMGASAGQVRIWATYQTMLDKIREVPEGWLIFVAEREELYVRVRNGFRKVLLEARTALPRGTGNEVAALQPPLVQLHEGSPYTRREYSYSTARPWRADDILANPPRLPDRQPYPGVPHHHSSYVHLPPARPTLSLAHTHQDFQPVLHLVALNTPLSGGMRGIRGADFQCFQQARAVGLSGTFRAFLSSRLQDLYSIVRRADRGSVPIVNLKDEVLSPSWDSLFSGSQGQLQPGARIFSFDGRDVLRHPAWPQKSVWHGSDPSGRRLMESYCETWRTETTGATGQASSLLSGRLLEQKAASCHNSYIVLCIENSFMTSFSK
UniProt P30681: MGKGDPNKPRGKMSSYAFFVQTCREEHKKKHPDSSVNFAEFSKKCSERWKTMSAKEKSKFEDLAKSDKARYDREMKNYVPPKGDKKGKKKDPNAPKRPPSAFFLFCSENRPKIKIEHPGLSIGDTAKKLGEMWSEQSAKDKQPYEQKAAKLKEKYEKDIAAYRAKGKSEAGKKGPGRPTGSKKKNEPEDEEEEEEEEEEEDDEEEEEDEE
UniProt P28653: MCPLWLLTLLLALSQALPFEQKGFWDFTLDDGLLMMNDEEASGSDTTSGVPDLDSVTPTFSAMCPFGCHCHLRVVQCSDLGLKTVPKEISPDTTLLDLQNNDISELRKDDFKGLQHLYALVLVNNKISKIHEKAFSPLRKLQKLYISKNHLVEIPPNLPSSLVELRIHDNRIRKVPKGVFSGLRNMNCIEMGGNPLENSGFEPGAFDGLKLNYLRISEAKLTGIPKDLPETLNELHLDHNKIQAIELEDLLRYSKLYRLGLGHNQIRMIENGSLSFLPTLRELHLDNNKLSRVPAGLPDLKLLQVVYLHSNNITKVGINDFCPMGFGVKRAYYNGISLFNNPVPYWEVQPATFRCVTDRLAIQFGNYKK

The list shows a part of the results. Small differences around the control level are noise.

Compound in this assay: CN[C@@H]1C[C@H]2O[C@@](C)([C@@H]1OC)n1c3ccccc3c3c4c(c5c6ccccc6n2c5c31)C(=O)NC4 [staurosporine]
As to the kind of experiment: log2 fold change of pooled soluble protein (PISA), ligand vs vehicle (log2 ratio); higher = more thermally stabilized. Particulars: ligand concentration: 20 uM; assay format: PISA pool 52.9/55.5/58.6 C.
As for UniProt P49442, the “log2 fold change of pooled soluble protein” value (“log2 fold change” for short) amounted to 0.363.
For UniProt P50544 the value was 0.0681; for UniProt P51880, -0.141.
Turning to UniProt P47754, the “log2 fold change” value is -0.0162.
For UniProt P29351 the value was -0.211; for UniProt P35441, -0.194.
With UniProt P47941, the “log2 fold change” value is 0.0341.
In the case of UniProt P48722, the “log2 fold change” value is -0.165.
For UniProt P34022 the value was 0.121; for UniProt P52480, 0.1.
As to UniProt P47878, the “log2 fold change” value is -0.271.
For UniProt P50171, the “log2 fold change” value was -0.0252.
The figure for UniProt P51863 is -0.0251; for UniProt P35980 it is -0.215; for UniProt P37804 it is -0.0285.
For UniProt P52019 the value was -0.00198; for UniProt P35822, -0.106; for UniProt P56391, -0.042.
The figure for UniProt P56382 is -0.0201; for UniProt P56542 it is -0.172.
Regarding UniProt P55284, the “log2 fold change” value is -0.0324.
The figure for UniProt P50462 is 0.011; for UniProt P47739 it is -0.523.
The figure for UniProt P46938 is -0.0828; for UniProt P49962 it is -0.123; for UniProt P35979 it is 0.157.
Consider UniProt P35710, for which the “log2 fold change” value came out at 0.204.
The figure for UniProt P39061 is 0.154.
Take UniProt P30681: the “log2 fold change” value was 0.104.
For UniProt P31996 the value was -0.0851.
The figure for UniProt P52196 is -0.0504; for UniProt P35279 it is -0.0137.
UniProt P53994: the “log2 fold change” value is -0.061.
Consider UniProt P52332, for which the “log2 fold change” value is -0.363.
The figure for UniProt P28667 is 0.159; for UniProt P28653 it is -0.306.
Consider UniProt P40336, for which the “log2 fold change” value worked out at 0.256.
